In patent publication EP2282358A1, “Host material for light-emitting devices” (Solvay SA, priority 2009, dated 2011):

Test: OLED preparation and performance measurement (compound as electron transporting host in the spin-coated emissive layer)
Details: for Turn-on voltages: EML 60 % ETM, 35 % TCzl, 5 % Firpic; for EQE / V / Cd/A / Lm/W: at 1000 cd/m^2; for x / y: color index; for Cd/A: luminous efficiency; for Lm/W: power efficiency
[1] = HTM TCzF, solution chlorobenzene
[2] = HTM TCzI, solution chlorobenzene

SMILES: CC(C)(C)c1ccc(-c2nnc(-c3cccc(-c4nnc(-c5ccc(C(C)(C)C)cc5)o4)c3)o2)cc1 [OXD7, reference compound]
- Turn-on voltages (spin-coated from chlorobenzene): 3.4 V
- EQE [1]: 6.0%
- V [1]: 7.5 V
- EQE [2]: 6.3%
- V [2]: 7.3 V
- x [2]: 0.17
- y [2]: 0.37
- Cd/A [1]: 13.3 Cd/A
- Cd/A [2]: 13.6 Cd/A
- Lm/W [1]: 5.6 Lm/W
- Lm/W [2]: 5.9 Lm/W

SMILES: CC(C)(C)c1ccc(-c2nnc(-c3cc(-c4nnc(-c5ccc(C(C)(C)C)cc5)o4)cc(C(C)(C)C)c3)o2)cc1 [tBu-OXD7]
- Turn-on voltages (spin-coated from toluene): 3.6 V
- EQE [1]: 6.5%
- V [1]: 7.7 V
- EQE (HTM TCzF, solution toluene): 7.4%
- V (HTM TCzF, solution toluene): 6.9 V
- EQE (HTM TCzI, solution toluene): 7.7%
- V (HTM TCzI, solution toluene): 7.4 V
- x (HTM TCzI, solution toluene): 0.16
- y (HTM TCzI, solution toluene): 0.36
- Cd/A [1]: 14.0 Cd/A
- Cd/A (HTM TCzF, solution toluene): 16.0 Cd/A
- Cd/A (HTM TCzI, solution toluene): 16.3 Cd/A
- Lm/W [1]: 5.7 Lm/W
- Lm/W (HTM TCzF, solution toluene): 7.2 Lm/W
- Lm/W (HTM TCzI, solution toluene): 7.0 Lm/W
